The values below come from PubChem BioAssay AID1487 (National Center for Advancing Translational Sciences (NCATS), 2009).

This assay in a line: qHTS Assay for Modulators of Lamin A Splicing. The note with it: HeLa LMNA splicing GFP/RFP minigene ratio, 48 h. In outline:
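S3 HeLa stable clones carrying a lamin A-EGFP splicing minigene plus DsRed2 were seeded at 600 cells/well in Opti-MEM with 2% FBS, pin-dosed and incubated 48 h at 37°C. Acumen cytometry (488 nm) gave the GFP/RFP total-intensity ratio.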
(Quantitative high-throughput screening tests each substance at several concentrations.)

[1] abbreviates: measured here: GFP splicing reporter channel.
Where [2] appears, read: measured here: RFP viability control channel.

This is one part of the list. Shown are side measurements of this screen, not its main read-out; they come without a call. Compounds called inactive in the main read-out are mostly missing here. Potencies come from curve fits of mixed quality, noted in brackets.

As usually defined, the AC50 is the concentration giving half of the maximal activity seen. Take `N#Cc1c(N)nc2c(c1-c1ccncc1)CCCC2`: the AC50 under setting [1] was 14.1 µM [rising, single point].
Turning to `O=C1C(Nc2ccccc2)=C(NS(=O)(=O)c2ccccc2)C(=O)c2ccccc21`, the half-maximal activity concentration (AC50) under setting [2] is 0.251 µM [rising, partial curve].
The same measure, in the same setting: with `O=C(CSc1nc2ccc([N+](=O)[O-])cc2[nH]1)c1ccc2ccccc2c1` the figure was 12.6 µM [falling, partial curve].
With `CCc1ccc(NC(=O)C2CCCN(S(=O)(=O)c3ccc4c(c3)CCCN4C(C)=O)C2)cc1` (stereo not drawn), the AC50 runs as follows: under setting [1], 12.6 µM [falling, partial curve]; under setting [2], 0.562 µM [falling, partial curve, poor fit].
On to `N#CCC(N)=C(C#N)C#N`, for which the AC50 under setting [2] was 0.0708 µM [falling, full curve].
`CCOc1ccccc1C(=O)N(CN1CCCC1=O)c1ccc(C)c(Cl)c1`: the AC50 runs as follows: under setting [1], 10 µM [rising, partial curve]; under setting [2], 12.6 µM [rising, partial curve].
For the compound `CC/C(=N\Nc1ccccc1[N+](=O)[O-])c1ccc(O)cc1`, the concentration at half-maximal activity (AC50) under setting [1] is 3.55 µM [falling, single point] and the concentration at half-maximal activity (AC50) under setting [2] was 8.91 µM [falling, single point].
In the case of `O=C(CSc1nc2ccccc2o1)N1CCN(S(=O)(=O)c2ccc3ccccc3c2)CC1`, the AC50 under setting [2] was 12.6 µM [rising, partial curve].
On to `COc1ccc(CCNC(=O)c2ccc(CSc3ccccc3)o2)cc1`, for which the AC50 under setting [2] was 0.0708 µM [falling, partial curve, poor fit].
The same measure, in the same setting: with `C#CC[N+]1(CC#Cc2ccc(C)cc2)CCCCC1` the figure was 31.6 µM [rising, single point].
The same measure, in the same setting: with `O=C(c1ccc(S(=O)(=O)N2CCOCC2)cc1)N1CCN(c2cccc(Cl)c2)CC1` the figure was 22.4 µM [rising, single point].
`CCCNC(=O)C(=O)NCC(c1ccc2c(c1)OCO2)N1CCOCC1` (stereo not drawn): the half-maximal activity concentration (AC50) under setting [1] is 6.31 µM [rising, partial curve, poor fit].
Consider `CCOc1ccc(NC(=S)N(CCN2CCOCC2)Cc2cc3cc4c(cc3[nH]c2=O)OCO4)cc1`, for which the AC50 under setting [1] is 35.5 µM [falling, single point].
For `CCN(CC)CCOC(=O)C1(C2CCCCC2)CCCCC1`, the concentration at half-maximal activity (AC50) under setting [1] is 0.0708 µM [falling, full curve, poor fit] and the concentration at half-maximal activity (AC50) under setting [2] is 0.0708 µM [falling, full curve, poor fit].
In the case of `CCCCOCCOCCOCc1cc2c(cc1CCC)OCO2`, the AC50 reads like this: under setting [1], 35.5 µM [falling, single point]; under setting [2], 0.0355 µM [rising, full curve, poor fit].
For the compound `Cc1ccccc1-n1nc(CSc2nc3ccccc3[nH]2)c(-c2ccccc2)c1N`, the concentration at half-maximal activity (AC50) under setting [2] was 20 µM [rising, partial curve, poor fit].
With `COc1ccc(Oc2cn[nH]c2-c2ccc(O)cc2O)cc1`, the AC50 is 15.8 µM [rising, single point] under setting [1] and 17.8 µM [rising, partial curve] under setting [2].
Consider `Cc1ccc(NS(=O)(=O)c2ccc(C)c(NC(=O)COc3ccccc3)c2)c(C)c1`, for which the AC50 under setting [2] is 12.6 µM [rising, partial curve, poor fit].
Take `CC1=C(C(=O)N2CCOCC2)C(c2ccc(Cl)cc2)NC(=S)N1` (stereo not drawn): under setting [1], the AC50 is 1.26 µM [rising, full curve, poor fit].
Turning to `C=CCN(CC=C)S(=O)(=O)c1ccc(NC(=S)NC(=O)c2ccco2)cc1`, under setting [2], the half-maximal activity concentration (AC50) is 22.4 µM [rising, single point].
Turning to `COc1ccc(-c2ccnc3nc(-n4cccc4)nn23)cc1`, the AC50 under setting [2] was 0.447 µM [rising, single point].
On to `Cc1cc(C)n(C(=O)c2ccc(NC(=O)C3COc4ccccc4O3)cc2)n1` (stereo not drawn), for which the AC50 under setting [1] is 3.16 µM [rising, partial curve, poor fit].
As to `Cc1cc(S(=O)(=O)N(Cc2ccc(C(C)(C)C)cc2)Cc2cccs2)ccc1-n1cnnn1`, the AC50 reads like this: under setting [1], 25.1 µM [rising, single point]; under setting [2], 31.6 µM [rising, single point].
As for `Cc1ccc(-n2ncc3c(N(C)Cc4ccccc4)ncnc32)cc1`, the AC50 under setting [2] was 0.00447 µM [rising, full curve, poor fit].
In the case of `Cc1cc(Cl)ccc1Oc1ncc(CN2CCN(c3ccccc3)CC2)s1`, the AC50 under setting [2] is 15.8 µM [rising, single point].
`Cc1ccc(-c2cc(C(=O)N/N=C/C=C/c3ccccc3)n[nH]2)s1`: the AC50 was 15.8 µM [rising, single point] under setting [1] and 35.5 µM [rising, single point] under setting [2].
As for `S=C(NCc1ccc2[nH]c3c(c2c1)CCCC3)Nc1ccccc1Cl`, under setting [2], the AC50 is 35.5 µM [rising, single point].
As to `Cc1ccc(S(=O)(=O)N2CCCOC2CNC(=O)C(=O)NCCC2=CCCCC2)cc1` (stereo not drawn), the AC50 reads like this: under setting [1], 12.6 µM [rising, single point]; under setting [2], 20 µM [rising, single point].
As to `COc1ccc(Oc2ncc3nc(-c4ccc(Cl)cc4)c(=O)n(C4CC4)c3n2)cc1`, the AC50 under setting [1] was 14.1 µM [falling, partial curve, poor fit].
In the case of `CC(C)C(=O)Nc1c2c(nc3ccccc13)N(C)CC2`, the concentration at half-maximal activity (AC50) under setting [2] was 0.0794 µM [falling, full curve, poor fit].
For the compound `O=C(/C=C/c1ccccc1Cl)NCCc1ccccc1`, the half-maximal activity concentration (AC50) reads like this: under setting [1], 2.82 µM [rising, full curve]; under setting [2], 15.8 µM [rising, partial curve].
As to `Cc1ccc(C)c(N2CCN(C(=O)Cc3ccc(-n4c(=O)[nH]c5ccsc5c4=O)cc3)CC2)c1`, under setting [2], the concentration at half-maximal activity (AC50) was 35.5 µM [rising, partial curve, poor fit].
Same read-out and setting: as for `O=C(NC1CCc2ccccc21)c1cc(COc2ccc(F)cc2F)on1` (stereo not drawn), the figure is 12.6 µM [falling, partial curve].
For the compound `COCCSc1nnc(NC(=O)c2ccc(NC(=O)C(C)C)cc2)s1`, the AC50 is 35.5 µM [falling, partial curve] under setting [1] and 35.5 µM [falling, partial curve, poor fit] under setting [2].
For `COc1cc(NC(=O)Cn2ccn(Cc3ccccc3OC)c(=O)c2=O)cc(OC)c1`, the AC50 under setting [1] was 35.5 µM [falling, single point] and the AC50 under setting [2] was 6.31 µM [falling, partial curve].
In the case of `N#Cc1nc(COc2ccc(Cl)cc2)oc1N1CCN(Cc2ccccc2)CC1`, under setting [2], the concentration at half-maximal activity (AC50) is 14.1 µM [rising, single point].
